Measurements: publication doi:10.1101/2024.01.18.576020
No constants are given. Whether binding was seen depends on the method and setting. In cells and extracts the contact can be indirect. Some entries that bind do so weakly or less than the wild type.

Amino acid sequences for entries named in this document (tags omitted). A change or cut given only in a name is not applied to a line headed by its entry. Chains listed by the source or under a name are the forms on record and can include a tag or linker. Residues count along the entry.
UniProt P35372: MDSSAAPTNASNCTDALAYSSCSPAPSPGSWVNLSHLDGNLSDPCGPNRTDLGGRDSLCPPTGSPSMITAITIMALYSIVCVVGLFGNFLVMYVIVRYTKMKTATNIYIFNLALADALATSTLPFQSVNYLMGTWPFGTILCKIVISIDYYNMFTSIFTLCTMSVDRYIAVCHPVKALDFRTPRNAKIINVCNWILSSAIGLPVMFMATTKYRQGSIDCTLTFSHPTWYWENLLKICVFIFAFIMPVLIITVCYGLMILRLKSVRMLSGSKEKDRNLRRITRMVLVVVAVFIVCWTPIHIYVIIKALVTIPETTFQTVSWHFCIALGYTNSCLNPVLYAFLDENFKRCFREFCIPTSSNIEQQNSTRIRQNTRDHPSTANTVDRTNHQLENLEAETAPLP
wild-type human glucagon-like peptide-1 receptor fused to EGFP at its C-terminal end (P43220, residues 24-463): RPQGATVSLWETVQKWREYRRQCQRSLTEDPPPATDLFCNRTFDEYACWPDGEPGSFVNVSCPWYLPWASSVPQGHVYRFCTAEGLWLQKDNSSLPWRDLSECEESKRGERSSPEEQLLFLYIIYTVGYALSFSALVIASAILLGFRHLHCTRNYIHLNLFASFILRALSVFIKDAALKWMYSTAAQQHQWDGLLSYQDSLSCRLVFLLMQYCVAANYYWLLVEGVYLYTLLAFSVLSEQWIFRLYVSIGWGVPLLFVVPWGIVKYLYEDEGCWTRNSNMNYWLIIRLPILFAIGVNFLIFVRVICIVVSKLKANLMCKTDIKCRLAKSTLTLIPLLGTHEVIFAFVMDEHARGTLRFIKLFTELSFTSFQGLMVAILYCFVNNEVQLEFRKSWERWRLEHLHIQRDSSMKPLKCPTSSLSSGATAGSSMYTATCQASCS
human GLP-1R natural genetic variant T440A fused to EGFP at its C-terminal end (P43220, form named): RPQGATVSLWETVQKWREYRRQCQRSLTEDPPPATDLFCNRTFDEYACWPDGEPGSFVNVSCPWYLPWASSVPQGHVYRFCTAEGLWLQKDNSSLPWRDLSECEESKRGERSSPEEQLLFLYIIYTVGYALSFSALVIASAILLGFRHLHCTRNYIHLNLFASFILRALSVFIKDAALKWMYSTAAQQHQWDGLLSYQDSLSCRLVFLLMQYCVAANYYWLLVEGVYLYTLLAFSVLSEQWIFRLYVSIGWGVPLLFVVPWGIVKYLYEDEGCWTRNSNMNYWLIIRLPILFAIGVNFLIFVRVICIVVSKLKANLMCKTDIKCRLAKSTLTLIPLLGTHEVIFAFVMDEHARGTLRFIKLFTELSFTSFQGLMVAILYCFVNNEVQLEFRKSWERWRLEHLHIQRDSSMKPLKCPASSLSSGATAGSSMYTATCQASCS
human GLP-1R natural genetic variant S445T fused to EGFP at its C-terminal end (P43220, form named): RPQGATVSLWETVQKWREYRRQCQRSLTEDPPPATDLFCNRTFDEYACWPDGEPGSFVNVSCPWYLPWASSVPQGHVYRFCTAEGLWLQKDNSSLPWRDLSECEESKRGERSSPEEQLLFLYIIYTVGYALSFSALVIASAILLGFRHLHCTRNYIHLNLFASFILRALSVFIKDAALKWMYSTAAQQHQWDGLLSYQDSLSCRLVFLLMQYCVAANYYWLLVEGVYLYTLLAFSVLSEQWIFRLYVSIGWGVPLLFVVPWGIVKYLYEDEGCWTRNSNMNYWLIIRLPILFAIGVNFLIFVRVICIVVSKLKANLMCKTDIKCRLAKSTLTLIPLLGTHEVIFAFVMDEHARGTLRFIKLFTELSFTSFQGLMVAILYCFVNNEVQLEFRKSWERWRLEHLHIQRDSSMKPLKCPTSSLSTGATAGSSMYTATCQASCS
human GLP-1R natural genetic variant L443P fused to EGFP at its C-terminal end (P43220, form named): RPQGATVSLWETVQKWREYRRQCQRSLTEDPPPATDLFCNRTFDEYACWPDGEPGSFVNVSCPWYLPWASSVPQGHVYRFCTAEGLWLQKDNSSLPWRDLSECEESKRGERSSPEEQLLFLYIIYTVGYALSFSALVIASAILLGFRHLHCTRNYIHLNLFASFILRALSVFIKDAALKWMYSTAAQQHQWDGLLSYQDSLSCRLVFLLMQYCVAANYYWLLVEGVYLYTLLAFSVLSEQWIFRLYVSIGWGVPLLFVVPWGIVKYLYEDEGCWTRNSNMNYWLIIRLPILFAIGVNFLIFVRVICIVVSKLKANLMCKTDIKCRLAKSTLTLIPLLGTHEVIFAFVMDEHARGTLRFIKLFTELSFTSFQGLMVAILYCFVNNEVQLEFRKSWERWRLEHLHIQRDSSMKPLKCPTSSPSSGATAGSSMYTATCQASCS

Tests used:
Experiment in all cases: FRET or BRET
[1] = biological target: wild-type human μ opioid receptor fused to EGFP at its C-terminal end (human) (UniProt P35372)
[2] = biological target: wild-type human glucagon-like peptide-1 receptor fused to EGFP at its C-terminal end (human) (UniProt P43220)
[3] = biological target: human GLP-1R natural genetic variant T440A fused to EGFP at its C-terminal end (human) (UniProt P43220)
[4] = biological target: human GLP-1R natural genetic variant S445T fused to EGFP at its C-terminal end (human) (UniProt P43220)
[5] = biological target: human GLP-1R natural genetic variant L443P fused to EGFP at its C-terminal end (human) (UniProt P43220)

Measured: binding

endogenous β-arrestin 2 (from UniProt P32121 1-409)
binds: [1] | [2]

transfected human β-arrestin 2 tagged with Flag-TST (from UniProt P32121 1-409)
binds: all assays above
